{"source": "PubChem BioAssay AID662", "about": "(National Center for Advancing Translational Sciences (NCATS), 2007)", "note": "Some of the results follow. The main result of the screen is listed elsewhere. These columns were measured beside it and carry no call. Compounds called inactive in the main read-out are mostly missing here. Potencies come from curve fits of mixed quality, noted in brackets."}
{"assay": "Cell signaling CRE-BLA (Fsk stim)", "details": "CHO CRE-bla reporter (cAMP response element driving beta-lactamase), forskolin EC10, beta-lactamase ratio; measured here: 460 nm blue channel", "outline": "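Forskolin analogue NKH 477 at EC10 stimulated CRE-driven beta-lactamase in CHO cells alongside compound dilution series. Beta-lactamase was measured with CCF4, excitation 405 nm, emission ratio 460/530 nm.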"}
{"smiles": "CCOCCCNc1nc(=S)[nH]c2cc(OC)c(OC)cc12", "AC50": "0.126 µM [rising, full curve]"}
{"smiles": "Cc1cc(NC(=O)c2cnn3cccnc23)n(-c2ccccc2)n1", "AC50": "2.51 µM [rising, full curve]"}
{"smiles": "O=S(=O)(NCCc1ccccn1)c1ccc(F)c(F)c1", "AC50": "25.1 µM [rising, single point]"}
{"smiles": "COCC(=O)Nc1nc2n(n1)C(c1ccccc1)CC(c1ccc(OC)cc1)N2", "note": "(stereo not drawn)", "AC50": "0.316 µM [falling, full curve]"}
{"smiles": "O=C(NCc1cccnc1)C1CCCCN1S(=O)(=O)c1ccc(F)cc1", "note": "(stereo not drawn)", "AC50": "0.00398 µM [falling, full curve, poor fit]"}
{"smiles": "CC1(C)CC(=O)c2cc(C(=O)N3CCN(CCO)CC3)c(=O)n(-c3ccc(Cl)cc3)c2C1", "AC50": "0.501 µM [rising, full curve]"}
{"smiles": "CCn1cc(C(=O)Nc2ccc3c(c2)OCCO3)c2cc(OC)c(OC)cc2c1=O", "AC50": "0.631 µM [rising, full curve]"}
{"smiles": "Cc1nc2ccc(S(=O)(=O)N(C)CC(=O)NCc3ccc4c(c3)OCO4)cc2s1", "AC50": "0.1 µM [falling, full curve]"}
{"smiles": "CCOC(=O)CSc1nnc(CSc2nc3ccccc3c(=O)[nH]2)n1-c1ccccc1", "AC50": "10 µM [rising, single point]"}
{"smiles": "CCNc1ncc2nc(CCc3ccccc3)c(=O)n(-c3ccccc3)c2n1", "AC50": "12.6 µM [rising, partial curve]"}
{"smiles": "Cc1ccc(S(=O)(=O)N2CCN(CCO)CC2)cc1-c1nnc2c3ccccc3c(C)nn12", "AC50": "10 µM [rising, partial curve]"}
{"smiles": "Cc1ccc(-c2nc3ccccc3[nH]2)cc1NC(=O)c1ccco1", "AC50": "12.6 µM [rising, partial curve]"}
{"smiles": "O=C1c2ccccc2N2C(=O)c3ccccc3C2N1Cc1ccco1", "note": "(stereo not drawn)", "AC50": "10 µM [rising, partial curve]"}
{"smiles": "Cc1nnc(SCC(=O)NC(C)c2ccccc2)[nH]c1=O", "note": "(stereo not drawn)", "AC50": "1 µM [falling, partial curve]"}
{"smiles": "COc1ccc(Nc2cc(C)nc(N3CCOCC3)n2)cc1", "AC50": "12.6 µM [rising, single point]"}
{"smiles": "O=C1NC(=O)C(CC(=O)N(c2ccccc2)C2(C(=O)NC3CCCC3)CCCCC2)N1", "note": "(stereo not drawn)", "AC50": "0.00398 µM [falling, full curve, poor fit]"}
{"smiles": "O=C(C1CCN(S(=O)(=O)c2ccc3ccccc3c2)CC1)N1CCN(c2ncccn2)CC1", "AC50": "5.01 µM [falling, single point]"}
{"smiles": "NC(=O)CN1CCCN(S(=O)(=O)c2ccc(Br)cc2)CC1", "AC50": "25.1 µM [rising, single point]"}
